Values from PubChem BioAssay AID1508597 (Cure First, 2020).
Assay: 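Survival screen with siRNA in ovarian cancer cells derived from patients, with or without rucaparib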 (primary screen). Cells: human ovarian carcinoma lines grown from tumours: OCI-P5x (papillary serous) and OCI-C5x (clear cell). Knock-down reagent: siRNA pool against human genes, 1.25 pmol siRNA per well. Duration: 72 h or 96 h, depending on the cell culture. Treatment: rucaparib 20 µM (about IC30) or vehicle, present until read-out. Rucaparib or vehicle: Rucaparib. Cell line: OCI-C5x (clear cell). Measurement: 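ATP luminescence measured at 72 or 96 h according to the culture, then normalised and expressed as percent viability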. Scale: viability, normalised: higher = more viable cells remaining. Hit rule: 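a well counts as a hit if its normalised viability is under 80 percent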. Meaning of the calls: active = viability under 80%; inactive = viability 80% or more.
Shown is a random part of the about 2,100 reagents, under one of the conditions tested. 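Calls flag viability under 80% in either arm, not effects specific to rucaparib; the reference for percent is not stated.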 Entries without a mark were called inactive. A reagent listed more than once was tested more than once; the source does not tell the runs apart. Not given: the 100% reference.

PDP1, technical replicate 1
- viability, normalised (%): 58.2 (active)

PDP1, technical replicate 2
- viability, normalised (%): 67.9 (active)

PDP1, technical replicate 3
- viability, normalised (%): 63.5 (active)

STK11, technical replicate 1
- viability, normalised (%): 45.1 (active)

STK11, technical replicate 2
- viability, normalised (%): 53.9 (active)

STK11, technical replicate 3
- viability, normalised (%): 54.4 (active)

RPA3, technical replicate 1
- viability, normalised (%): 41.9 (active)

RPA3, technical replicate 2
- viability, normalised (%): 52.8 (active)

RPA3, technical replicate 3
- viability, normalised (%): 53.8 (active)

FBXO5, technical replicate 1
- viability, normalised (%): 55.3 (active)

FBXO5, technical replicate 2
- viability, normalised (%): 69.8 (active)

FBXO5, technical replicate 3
- viability, normalised (%): 52.3 (active)

HDAC1, technical replicate 1
- viability, normalised (%): 54 (active)

HDAC1, technical replicate 1
- viability, normalised (%): 45.3 (active)

HDAC1, technical replicate 2
- viability, normalised (%): 68.2 (active)

HDAC1, technical replicate 2
- viability, normalised (%): 41.4 (active)

HDAC1, technical replicate 3
- viability, normalised (%): 71.1 (active)

HDAC1, technical replicate 3
- viability, normalised (%): 38.9 (active)

Looked up above.
STK11, technical replicate 2, viability, normalised (%): 53.9 (active)
FBXO5, technical replicate 3, viability, normalised (%): 52.3 (active)
FBXO5, technical replicate 2, viability, normalised (%) → 69.8 (active)
Value of PDP1, technical replicate 1 under “viability, normalised (%)”: 58.2 (active)
For “viability, normalised (%)”, FBXO5, technical replicate 1 is entered as 55.3 (active)

The listing continues:
APBB1, technical replicate 1
- viability, normalised (%): 43.5 (active)

APBB1, technical replicate 2
- viability, normalised (%): 27.4 (active)

APBB1, technical replicate 3
- viability, normalised (%): 30.4 (active)

AXL, technical replicate 1
- viability, normalised (%): 49.2 (active)

AXL, technical replicate 2
- viability, normalised (%): 61.3 (active)

AXL, technical replicate 3
- viability, normalised (%): 54.5 (active)

SUDS3, technical replicate 1
- viability, normalised (%): 24 (active)

SUDS3, technical replicate 2
- viability, normalised (%): 19.9 (active)

SUDS3, technical replicate 3
- viability, normalised (%): 26.4 (active)

INTS3, technical replicate 1
- viability, normalised (%): 51.3 (active)

INTS3, technical replicate 2
- viability, normalised (%): 58.4 (active)

INTS3, technical replicate 3
- viability, normalised (%): 54.2 (active)

RRP8, technical replicate 1
- viability, normalised (%): 49 (active)

RRP8, technical replicate 2
- viability, normalised (%): 52.3 (active)

RRP8, technical replicate 3
- viability, normalised (%): 48.3 (active)
